{"source": "the OPERA property sets (Mansouri et al. 2018)", "data": [{"smiles": "O=C(O)c1cccc2cccc([N+](=O)[O-])c12", "values": [{"measurement": "solubility", "result": 1780, "unit": "µM"}]}]}
